# The list shows a part of the results. These are further read-outs of the screen, such as a control signal, another cell line or another target. No call is given for them. The list favours compounds with an active or inconclusive main result. Potencies come from curve fits of mixed quality, noted in brackets.
# Assay: qHTS Assay to Find Inhibitors of Chronic Active B-Cell Receptor Signaling
# Details: ABC-DLBCL IkBa-CBG/CBR reporter, luminescence ratio (green luciferase fused to IkBa over red control in TMD8 lymphoma cells), 4 h
# Procedure, shortened: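 Doxycycline induced both beetle luciferases in TMD8 lymphoma cells; IKK-driven degradation limits the IkappaBalpha-fused green signal, while red luminescence normalises for cell number and nonspecific effects. Compounds tested up to 46 uM, 4 hrs.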
# [1] = measured here: CBR red luminescence, cell number
# [2] = measured here: IkBa-CBG green luminescence
compound,measurement,setting,value
Cc1ccc(C(C(=O)NCc2ccco2)N(Cc2ccco2)C(=O)CNC(=O)c2ccco2)cc1 (stereo unspecified),AC50,[1],"35.5 µM [rising, single point]"
FC(F)(F)c1nnc(-c2ccccc2)nc1Oc1ccccc1,AC50,[1],"25.9 µM [falling, single point]"
CSc1c(SCc2ccccc2)cnn(Cc2ccccc2)c1=O,AC50,[1],"2.91 µM [rising, partial curve]"
COc1ccc2oc(C(=O)N(Cc3ccco3)Cc3cccs3)c(C)c2c1,AC50,[1],"25.9 µM [rising, single point]"
Cc1onc(-c2c(Cl)cccc2Cl)c1NC(=O)N(C)N,AC50,[1],"1.58 µM [rising, full curve, poor fit]"
O=C1CC2(CCN(C(=O)C3CC(=O)N(c4ccc(F)cc4)C3)CC2)Oc2ccccc21 (stereo unspecified),AC50,[1],"0.82 µM [falling, full curve, poor fit]"
COc1ccc(CNC(=O)Cn2cc(C(F)(F)F)ccc2=O)cc1,AC50,[1],"9.2 µM [rising, partial curve, poor fit]"
CCOC(=O)c1cnn(-c2ccccc2)c1NC(=O)CN1CCOCC1,AC50,[1],"35.5 µM [rising, single point]"
O=C1NC(=S)N/C1=C/c1ccc2c(c1)OCO2,AC50,[1],"0.447 µM [falling, full curve]"
c1ccc(Cn2c(CNc3nc4ccccc4n3CCN3CCOCC3)nc3ccccc32)cc1,AC50,[1],"35.5 µM [falling, partial curve, poor fit]"
COC(=O)C1=C(C)N(Cc2ccccc2)C(=NCc2ccccc2)N[C@H]1c1cccc(C(F)(F)F)c1,AC50,[1],"13 µM [falling, single point]"
O=C(COc1ccccc1)Nc1nccs1,AC50,[1],"20.6 µM [falling, partial curve]"
O=C(Nc1ccc2oc(-c3ccccc3)nc2c1)c1ccco1,AC50,[1],"0.291 µM [rising, full curve, poor fit]"
O=C(CCN1CCC(c2cccs2)=N1)c1cccs1,AC50,[1],"35.5 µM [falling, single point]"
COc1ccc(NC(=O)c2cccc(N3C(=O)C4C5CCC(C5)C4C3=O)c2)cc1 (stereo unspecified),AC50,[1],"12.6 µM [falling, partial curve, poor fit]"
Cc1cccc(OCC(=O)NC(=S)NNC(=O)c2ccncc2)c1,AC50,[1],"3.55 µM [rising, partial curve, poor fit]"
COC(=O)c1c(NC(=O)C2CC2)sc2c1CCCC2,AC50,[1],"13 µM [rising, partial curve, poor fit]"
CN1CCc2cc(Cl)c(O)cc2[C@@H](c2ccccc2)C1,AC50,[1],"35.5 µM [falling, single point]"
Cn1c(N)c(C(=O)Nc2ccc(-c3ccccc3)cc2)sc1=S,AC50,[1],"20 µM [falling, single point]"
O=C(NCCCN1CCOCC1)c1cc(-c2ccc(F)cc2)no1,AC50,[1],"5.62 µM [falling, partial curve]"
O=c1cc(N2CCCCC2)c2ccccc2o1,AC50,[1],"35.5 µM [falling, partial curve, poor fit]"
Cc1nc(NC(N)=S)sc1C(=O)Nc1ccccc1,AC50,[1],"12.6 µM [falling, partial curve, poor fit]"
CCCNC(=O)c1onc(CSc2ccccc2)c1C(=O)NCCC,AC50,[1],"16.4 µM [falling, single point]"
CCN1/C(=C/c2ccc3cc(C)ccc3[n+]2CC)Sc2ccccc21,AC50,[1],"18.4 µM [falling, single point]"
c1csc(Cn2nnnc2CN2CCN(c3nc4ccccc4s3)CC2)c1,AC50,[1],"35.5 µM [falling, single point]"
COCCCNC(=O)c1ccc2c(c1)nc(C)n2-c1cccc(C)c1,AC50,[1],"35.5 µM [falling, single point]"
CC(C)C(=O)Nc1ccc2nn(-c3ccccc3)nc2c1,AC50,[1],"0.0891 µM [rising, full curve, poor fit]"
CC(C)[C@@H]1CC[C@@H](C)C[C@H]1OC(=O)C[n+]1cc(-c2ccc(Cl)cc2)n2c1CCCCC2,AC50,[1],"7.94 µM [falling, partial curve, poor fit]"
CCn1c(SCC(=O)c2ccccc2)nc2c(c1=O)SC(C)C2 (stereo unspecified),AC50,[1],"2.06 µM [falling, partial curve, poor fit]"
O=C(Nc1ccc(F)cc1F)Nc1ccc(F)cc1F,AC50,[1],"20 µM [falling, single point]"
Cc1cc2cc(CNC(=S)Nc3ccc(OC(F)(F)F)cc3)ccc2n1C,AC50,[1],"10.3 µM [rising, partial curve]"
Cc1ccccc1Cn1cc(/C=N/n2cnnc2)c2ccccc21,AC50,[1],"6.51 µM [falling, single point]"
COc1ccc(NC(=O)Nc2ccc3c(c2)C(=O)N([C@@H](C)CO)C[C@@H](C)[C@@H](CN(C)S(=O)(=O)c2cn(C)cn2)O3)cc1,AC50,[1],"20.6 µM [rising, single point]"
Cc1cc2nccc(-c3ccc(Cl)cc3Cl)n2n1,AC50,[1],"35.5 µM [rising, single point]"
COc1ccc(C2=Nn3c(nnc3C3CCCCC3)SC2)cc1OC,AC50,[1],"0.366 µM [rising, partial curve, poor fit]"
same,AC50,[2],"0.58 µM [falling, full curve]"
O=C(O)CNC(=O)C1COc2ccccc2O1 (stereo unspecified),AC50,[1],"0.0517 µM [rising, full curve, poor fit]"
CC(=O)Nc1ccc(-c2csc(NC(=O)C3CCN(S(=O)(=O)c4cccs4)CC3)n2)cc1,AC50,[1],"29.1 µM [falling, partial curve, poor fit]"
O=C(CN(CCc1ccccc1)C(=O)c1csnn1)NC1CCCC1,AC50,[1],"15.8 µM [rising, partial curve, poor fit]"
O=C(CN1C(=O)NC2(CCCCCCC2)C1=O)Nc1ccc(Br)cc1,AC50,[1],"9.2 µM [falling, partial curve]"
COc1ccc(-n2c(Cc3cccn3C)nnc2SCC(=O)N2CCCc3ccccc32)cc1,AC50,[1],"10 µM [falling, partial curve]"
O=C(/C=C/Nc1cccc([N+](=O)[O-])c1)c1cccs1,AC50,[1],"11.6 µM [falling, partial curve, poor fit]"
Oc1ccc(-c2csc(Nc3ncccn3)n2)cc1,AC50,[1],"1.12 µM [falling, full curve]"
O=c1c2cc(NC(=S)NCCCN3CCC(Cc4ccccc4)CC3)ccc2nc2n1CCCCC2,AC50,[1],"15.8 µM [falling, single point]"
CN1CCCC1CCNc1ccc2oc3ccccc3c(=O)c2c1 (stereo unspecified),AC50,[1],"10 µM [falling, partial curve, poor fit]"
CCN(CC(=O)Nc1ccc2c(c1)OCCO2)C(=O)CC1CCCC1,AC50,[1],"0.58 µM [rising, partial curve, poor fit]"
Cc1cc(OCCn2cc(/C(N)=N/O)c3ccccc32)ccc1Cl,AC50,[1],"1.12 µM [rising, full curve, poor fit]"
COc1ccc(S(=O)(=O)/N=C2\C=C(Nc3ccc(O)cc3)C(=O)c3ccccc32)cc1,AC50,[1],"1.12 µM [falling, full curve]"
Cc1cc2nc(-c3ccc(SCc4ccccn4)nc3)[nH]c2cc1C,AC50,[1],"11.2 µM [falling, partial curve, poor fit]"
NC(=O)Cc1ccc(Nc2nnc(-c3ccccc3)c3ccccc23)cc1,AC50,[1],"29.1 µM [falling, single point]"
COc1ccc(CN2CCN(C(=O)c3cccc4ccccc34)CC2)cc1Br,AC50,[1],"15.8 µM [falling, partial curve, poor fit]"
Cc1ccc(NC(=O)c2[nH]cnc2C(=O)NN)cc1,AC50,[1],"35.5 µM [falling, single point]"
COc1cccc(C(=O)N2CCN(Cc3cccc(F)c3)CC2)c1,AC50,[1],"4.61 µM [falling, single point]"
same,AC50,[2],"3.26 µM [rising, partial curve, poor fit]"
O=C(Nc1ccc2c(c1)OCO2)c1cc(C2CC2)on1,AC50,[1],"13 µM [falling, single point]"
COC(=O)c1sccc1NC(=O)COc1ccc(C)cc1,AC50,[1],"0.447 µM [falling, full curve, poor fit]"
NS(=O)(=O)c1ccc(CCNc2ccc(C(F)(F)F)cn2)cc1,AC50,[1],"35.5 µM [rising, single point]"
COc1ccccc1NC(=O)CSc1nnc(Cn2cnc3ccccc32)n1C,AC50,[1],"14.6 µM [rising, partial curve, poor fit]"
CCOC(=O)CNC(=O)CSc1cc(C)nc2ccc(OC)cc12,AC50,[1],"3.16 µM [rising, single point]"
CCC(c1nnnn1CCc1ccccc1)N(Cc1ccco1)Cc1cc2cccc(C)c2[nH]c1=O (stereo unspecified),AC50,[1],"13 µM [falling, partial curve, poor fit]"
COc1ccc(/C=C/c2ccc3cccc(O)c3n2)c(OC)c1OC,AC50,[2],"20 µM [falling, single point]"
O=C(N/N=C/c1cc(Br)cs1)c1c[nH]c2ccccc12,AC50,[1],"7.08 µM [falling, partial curve, poor fit]"
NC(N)=NC1=NC(=O)C(Cc2ccccc2)S1 (stereo unspecified),AC50,[1],"3.55 µM [rising, full curve, poor fit]"
CN(C(=O)Cn1nnc(-c2ccc(F)cc2)n1)C1CCS(=O)(=O)C1 (stereo unspecified),AC50,[1],"1.64 µM [falling, partial curve, poor fit]"
O=C1C=C(c2cc(C(F)(F)F)cc(C(F)(F)F)c2)C[C@@H](c2ccc3c(c2)OCO3)C1,AC50,[1],"29.1 µM [rising, single point]"
Cc1cccc(Nc2nnc(SCC(=O)Nc3ccc(C(=O)O)cc3)s2)c1,AC50,[1],"12.6 µM [falling, single point]"

# Exported bar-delimited: part of the list above.
compound | measurement | setting | value
O=c1cc(N2CCCCC2)c2ccccc2o1 | AC50 | [1] | 35.5 µM [falling, partial curve, poor fit]
Cc1nc(NC(N)=S)sc1C(=O)Nc1ccccc1 | AC50 | [1] | 12.6 µM [falling, partial curve, poor fit]
CCCNC(=O)c1onc(CSc2ccccc2)c1C(=O)NCCC | AC50 | [1] | 16.4 µM [falling, single point]
CCN1/C(=C/c2ccc3cc(C)ccc3[n+]2CC)Sc2ccccc21 | AC50 | [1] | 18.4 µM [falling, single point]

# Source: PubChem BioAssay AID493014 (National Center for Advancing Translational Sciences (NCATS), 2011)
